Measurements taken from paper PMC8329861, “Structure of the unique tetrameric STENOFOLIA homeodomain bound with target promoter DNA”.

Experiments:
[1] = molecular target: T1, His-MBP-STF85-190 WT (Medicago truncatula) (UniProt G0ZGT3); assay: EMSA; conditions: PAGE EMSA: 10 mM Tris-HCl pH 7.5, 100 mM KCl, 1 mM DTT, 2.5% glycerol, 5 ng/ul poly(dI-dC), 0.05% NP-40, 0.05 ug/ul protein, 5 fmol/ul DNA, room temperature 30 min; recombinant protein; residues 85-190; protein details: N-terminal 6xHis-MBP; label: 3' biotin
T1 sequence (looked up): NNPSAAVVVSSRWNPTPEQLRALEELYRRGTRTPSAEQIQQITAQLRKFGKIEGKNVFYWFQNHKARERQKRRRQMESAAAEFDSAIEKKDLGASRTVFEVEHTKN

[2] = molecular target: T2, STF-HD F142Y/Y143N (Medicago truncatula) (UniProt G0ZGT3); assay: fluorescence polarization; conditions: significant decrease in affinity, value only in figure; FP: 50 mM Tris-HCl pH 7.4, 125 mM NaCl, 50 nM DNA; recombinant protein; residues 85-190; protein details: 6xHis-MBP removed by TEV; label: 5' 6-FAM
T2 sequence (looked up): T1 sequence (looked up) with F58Y, Y59N

[3] = molecular target: T3, STF-HD WT (Medicago truncatula) (UniProt G0ZGT3); assay: fluorescence polarization; conditions: value only in figure; FP: 50 mM Tris-HCl pH 7.4, 125 mM NaCl, 50 nM DNA; recombinant protein; residues 85-190; protein details: 6xHis-MBP removed by TEV; label: 5' 6-FAM
T3 sequence (looked up): T1 sequence (looked up)

[4] = molecular target: T4, His-MBP-STF85-190 F142Y/Y143N (Medicago truncatula) (UniProt G0ZGT3); assay: EMSA; conditions: slightly reduced; PAGE EMSA: 10 mM Tris-HCl pH 7.5, 100 mM KCl, 1 mM DTT, 2.5% glycerol, 5 ng/ul poly(dI-dC), 0.05% NP-40, 0.05 ug/ul protein, 5 fmol/ul DNA, room temperature 30 min; recombinant protein; residues 85-190; protein details: N-terminal 6xHis-MBP; label: 3' biotin
T4 sequence (looked up): T1 sequence (looked up) with F58Y, Y59N

[5] = molecular target: T5, His-MBP-STF85-190 KRR/AAA K155A,R156A,R157A (Medicago truncatula) (UniProt G0ZGT3); assay: EMSA; conditions: reduced; PAGE EMSA: 10 mM Tris-HCl pH 7.5, 100 mM KCl, 1 mM DTT, 2.5% glycerol, 5 ng/ul poly(dI-dC), 0.05% NP-40, 0.05 ug/ul protein, 5 fmol/ul DNA, room temperature 30 min; recombinant protein; residues 85-190; protein details: N-terminal 6xHis-MBP; label: 3' biotin
T5 sequence (looked up): T1 sequence (looked up) with K71A, R72A, R73A

[6] = molecular target: T6, His-MBP-STF85-190 N147I (Medicago truncatula) (UniProt G0ZGT3); assay: EMSA; conditions: text also cites Zhang 2014; PAGE EMSA: 10 mM Tris-HCl pH 7.5, 100 mM KCl, 1 mM DTT, 2.5% glycerol, 5 ng/ul poly(dI-dC), 0.05% NP-40, 0.05 ug/ul protein, 5 fmol/ul DNA, room temperature 30 min; recombinant protein; residues 85-190; protein details: N-terminal 6xHis-MBP; label: 3' biotin
T6 sequence (looked up): T1 sequence (looked up) with N63I

[7] = molecular target: T7, His-MBP-STF85-190 R113Q + KRR/AAA R113Q,K155A,R156A,R157A (Medicago truncatula) (UniProt G0ZGT3); assay: EMSA; conditions: greatly decreased; PAGE EMSA: 10 mM Tris-HCl pH 7.5, 100 mM KCl, 1 mM DTT, 2.5% glycerol, 5 ng/ul poly(dI-dC), 0.05% NP-40, 0.05 ug/ul protein, 5 fmol/ul DNA, room temperature 30 min; recombinant protein; residues 85-190; protein details: N-terminal 6xHis-MBP; label: 3' biotin
T7 sequence (looked up): T1 sequence (looked up) with R29Q, K71A, R72A, R73A

GCAAATCTATGATCTATTCAAG (double strand) [TGA probe (TGA motifs only)]
binding result [1]: binds

GCAAATTAATGATTTATTCAAG (double strand) [MtLOB39 22 bp FAM]
binding result [2]: binds more weakly
binding result [3]: binds

TGGATTTAATAATGAAGTGACA (double strand) [MtAS2 22 bp biotin]
binding result [4]: binds more weakly
binding result [5]: binds more weakly
binding result [6]: no binding
binding result [7]: binds more weakly
binding result [1]: binds

GCAAATTAATTATTTATTAAAG (double strand) [TAAT probe (TAAT motifs)]
binding result [1]: binds

Where a chain is given by its changes, count along the chain named. For part of these data: A negative result means that nothing was seen under these conditions. For part of these data: At least one verdict was read from the data and is not stated in words by the source. Where a protein sequence is shown, tags need not be part of it. For part of these data: Weaker means in comparison with the reference protein, sequence or condition of that experiment. For part of these data: For at least one entry, the source does not settle the construct or the ends of the probe.
